# “And” between values parts separate entries of the source, which are not always exact repeats. Identical values can stand only once. Among all 580,000 compounds or so, about 6,100 (1.1%) were called active. The shares of active, inactive and inconclusive entries below differ from those in the screen. Calls come from the whole dose curve; as a rule, active = well fitted inhibition curve with a large enough effect; inconclusive = small, poorly fitted or top-dose-only effect, or another doubt; inactive = no such curve, though single readings can be large or run the other way. Potencies beside an inconclusive call are fits to weak or partial responses and may not hold up.
# Chains of the proteins cited; added tags and fusions are not shown. Lines headed by an entry give the natural chain unless they say otherwise; changes in a name come on top.
# UniProt P18054: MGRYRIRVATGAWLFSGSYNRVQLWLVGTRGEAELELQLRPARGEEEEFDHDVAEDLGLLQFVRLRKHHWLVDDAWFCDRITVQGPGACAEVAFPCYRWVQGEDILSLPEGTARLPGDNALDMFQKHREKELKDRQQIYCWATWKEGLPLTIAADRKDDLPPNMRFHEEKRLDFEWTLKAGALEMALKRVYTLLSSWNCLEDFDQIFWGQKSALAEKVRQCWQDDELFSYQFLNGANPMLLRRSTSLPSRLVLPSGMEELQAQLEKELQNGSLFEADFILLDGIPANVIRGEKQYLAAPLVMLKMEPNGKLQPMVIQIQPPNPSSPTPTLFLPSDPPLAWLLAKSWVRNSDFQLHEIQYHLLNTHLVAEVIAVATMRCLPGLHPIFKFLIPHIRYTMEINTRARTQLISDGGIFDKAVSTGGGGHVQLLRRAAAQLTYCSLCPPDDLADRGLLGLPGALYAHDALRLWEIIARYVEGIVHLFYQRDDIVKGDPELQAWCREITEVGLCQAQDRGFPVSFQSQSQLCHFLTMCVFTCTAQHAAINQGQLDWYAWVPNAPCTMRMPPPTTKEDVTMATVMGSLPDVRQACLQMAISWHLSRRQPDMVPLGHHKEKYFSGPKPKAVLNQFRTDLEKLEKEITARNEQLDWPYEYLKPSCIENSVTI
# Molecular target: Polyunsaturated fatty acid lipoxygenase ALOX12 (Homo sapiens) (UniProt P18054)
# Test: Primary qHTS assay for inhibitors of human arachidonate 12S-lipoxygenase (ALOX12): Round 2
# Conditions: purified 12hLO, xylenol orange hydroperoxide absorbance; activity change, negative = inhibition: at 108 µM (top of the series) unless noted
# Procedure, shortened: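 Hydroperoxide product was detected by ferrous iron/xylenol orange as the 573 to 405 nm absorbance ratio. Arachidonic acid at 40 uM (final) was turned over for 30 min at room temperature by 150 nM human 12hLO, pH 7.0 Hepes buffer, after 15 min compound preincubation.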
# % is set by controls: 0 for no effect and ±100 for the full control effect; potency is the fitted concentration of half-maximal effect.
SMILES,Potency,"activity change, negative = inhibition"
COc1ccc(-c2cc(C[C@H]3CNCC[C@H]3CC(=O)NCc3ccc4c(c3)OCO4)no2)cc1,"inconclusive: 20 µM [inhibitor, full curve]",
CCOC(=O)C1CCN(C(=O)/C(=C/c2ccccc2)NC(=O)c2ccccc2)CC1,"inconclusive: 112 µM [inhibitor, single point]",
Nc1nc(N)c2nc(CNc3ccc(C(=O)NC(CCC(=O)O)C(=O)O)cc3)cnc2n1 (stereo unspecified),"inconclusive: 3.85 µM [inhibitor, full curve, poor fit]",
CCCCOC(=O)c1ccc(NC(=O)c2c(N)n(C)c(=O)[nH]c2=O)cc1,"inconclusive: 0.178 µM [inhibitor, full curve, poor fit]",
O=C(O)CCn1cc(C(C(=O)O)N2CCN(Cc3ccccc3)CC2)c2ccc(F)cc21 (stereo unspecified),"inconclusive: 100 µM [inhibitor, single point]",
CC(C)(O)C1Cc2cc(/C=C/C(=O)O)c(O)cc2O1 (stereo unspecified),"inconclusive: 0.224 µM [inhibitor, full curve, poor fit]",
Cc1ccc(O)c(Nc2c3ccccc3nc3ccccc23)c1,,inactive: 0%
COc1cc(C2CC(=O)Nc3c(-c4cccc(F)c4)nsc32)cc2c1OCO2 (stereo unspecified),,inactive: 13.2%
NS(=O)(=O)c1ccc(NC(=S)NC2CCCCCC2)cc1,"inconclusive: 89.1 µM [inhibitor, partial curve, poor fit]",
Cc1ccc(S(=O)(=O)NC(CO)C(=O)O)cc1 (stereo unspecified),"inconclusive: 10 µM [inhibitor, partial curve, poor fit]",
COc1ccc(C2c3sc(=O)[nH]c3SC3C(=O)N(c4ccccc4)C(=O)C32)cc1 (stereo unspecified),"inconclusive: 22.4 µM [inhibitor, partial curve, poor fit]",
Cn1c(CN2CCOCC2)nnc1C1CCCN(S(=O)(=O)C2CC2)C1 (stereo unspecified),"inconclusive: 14.1 µM [inhibitor, full curve, poor fit]",
O=C(Nc1cccc(F)c1)C1CCN(S(=O)(=O)c2ccc3[nH]c4c(c3c2)CCCCC4)CC1,,inactive: -21.4%
c1ccc2c(NCCN3CCOCC3)nc(-c3ccoc3)nc2c1,"inconclusive: 31.6 µM [inhibitor, partial curve]",
COc1ccc(-c2coc3cc(OCC#N)ccc3c2=O)cc1OC,"inconclusive: 8.91 µM [inhibitor, full curve]",
Cc1ccccc1-c1nnc(SCC(=O)Nc2ccc3c(c2)OC2(CCCCC2)O3)o1,,inactive: 7.11%
COc1ccc(-c2ccc(C(=O)O)cc2)cc1,,inactive: -26.2%
CCOc1ccc(S(=O)(=O)Nc2nc3ccccc3nc2-n2ccc(=NC(=O)c3ccccc3C)cc2)cc1,"inconclusive: 79.4 µM [inhibitor, partial curve, poor fit]",
COc1cc(OC)cc(-c2c(-c3cccs3)c3cc(-c4cnc(N)nc4)ccc3n2C)c1,"inconclusive: 63.1 µM [inhibitor, partial curve, poor fit]",
CCc1cccc(C)c1NC(=O)Cc1nn(C)c(=O)c2ccccc12,"inconclusive: 2 µM [inhibitor, full curve, poor fit]",
Fc1ccc(C(c2ccc(F)cc2)N2CCN(C/C=C/c3ccccc3)CC2)cc1,"inconclusive: 39.8 µM [inhibitor, partial curve, poor fit] and inconclusive: 39.8 µM [inhibitor, partial curve]",

SMILES,Potency,"activity change, negative = inhibition"
CCOC(=O)c1ccc(NC(=O)c2nc[nH]c2C(=O)N[C@H](C)c2ccccc2)cc1,,inactive: 0.876%
COc1ccc(NC(=O)NCCN2CCc3ccccc3C2)cc1,"inconclusive: 39.8 µM [inhibitor, partial curve, poor fit]",
CC(C)c1ccc2oc(-c3cc(NC(=O)c4cccnc4)ccc3Cl)nc2c1,"inconclusive: 50.1 µM [inhibitor, partial curve, poor fit]",
Cn1c(SCC(=O)c2ccccc2F)nnc1C1CC1,,inactive: 0%
O=C(OCc1cccc(C(F)(F)F)c1)c1ccc[nH]c1=O,"inconclusive: 56.2 µM [inhibitor, partial curve, poor fit]",
O=C(c1n[nH]c2ccccc12)N1CC(Oc2ccccc2-c2nc(C3CC3)no2)C1,,inactive: 15.5%
Cc1ccccc1S(=O)(=O)NC(=O)C1(C)CCN1C(=O)C1(c2ccc(Cl)cc2)CCC1 (stereo unspecified),"inconclusive: 79.4 µM [inhibitor, single point]",
CCNC(=O)[C@@H]1[C@@H](CO)[C@@H]2Cn3c(cccc3=O)[C@@H]2N1Cc1cccc(F)c1,"inconclusive: 158 µM [inhibitor, partial curve, poor fit]",
COc1ccc(/C=N/NC(N)=S)cc1,active: 25.1 µM,
CCCCCC(=O)N1C[C@H](O)[C@@H](n2cc(C3CC3)nn2)C[C@@H]1c1ccc(Cl)cc1,"inconclusive: 35.5 µM [inhibitor, single point]",
Cn1nc(C(=O)NCCc2ccc3c(c2)OCCO3)c2ccccc2c1=O,,inconclusive: -38.4% [inhibitor]
Cc1csc(NC(=O)c2ccc(Cn3nc(C)c(Br)c3C)o2)n1,,inactive: -23.5%
C[C@@H]1CN([C@@H](C)CO)C(=O)CCCn2nncc2CO[C@H]1CN(C)Cc1ccc(-c2ccccc2)cc1,,inactive: -25.7%
N=C1C(c2nc(-c3ccc(Cl)cc3)cs2)=C(O)CN1NC(=O)c1ccc2c(c1)OCO2,"inconclusive: 141 µM [inhibitor, partial curve, poor fit]",
CCc1ccccc1Nc1nc2ccccc2[nH]1,,inactive: 185%
O=C(CN1CCN(S(=O)(=O)c2ccc(Br)cc2)CC1)N/N=C/c1ccc(Br)s1,,inactive: -11.7%
C=CCC1(CC=C)CCCN1,"inconclusive: 6.31 µM [inhibitor, full curve]",
CCN1C(=S)N[C@@H](CCc2ccccc2)[C@H](C(=O)OC)[C@H]1C,"inconclusive: 44.7 µM [inhibitor, partial curve, poor fit]",
CC(C)CC(=O)NC(=S)Nc1cccc(NC(=O)c2ccccc2)c1,"inconclusive: 50.1 µM [inhibitor, partial curve, poor fit]",
Fc1ccc(C[n+]2csc3ccccc32)cc1,"inconclusive: 2.51 µM [inhibitor, full curve]",
